Experimental data taken from US7041819B2, “Halogenated calixpyrroles and uses thereof” (Board of Regents, The University of Texas System, priority 1996, dated 2006).
At least one structure is not confirmed: it was looked up by name or label, or the drawing left a doubt.

Key:
[1] = 1H and 19F NMR titration in acetonitrile-d3 (0.5% v/v D2O); assay type: binding; conditions: for apparent binding constant, fluoride: acetonitrile
[2] = as above; assay type: binding; conditions: for apparent binding constant, chloride / apparent binding constant, dimethyl sulfoxide (DMSO): acetonitrile
Source text: ^1H and ^19F NMR Titrations. The receptor 44, as a 0.014 M acetonitrile-d3 (0.5% v/v D2O) solution, was titrated by addition of concentrated acetonitrile-d3 (0.5% v/v D2O) solutions of the anions in question (in the form of their tetrabutylammonium salts). In order to account for dilution effects, these anion solutions also contained receptor 44 at its initial concentration. The data were fit to a 1:1 binding profile according to the method of Wilcox (in Frontiers in Supramolecular Organic Chemistry and Photochemistry; Schneider, H.-J., Dürr, H., Eds.; VCH: Weinheim, 1991) using changes in both the NH and β-F pyrrolic resonances in the ^1H and ^19F NMR spectra, respectively, that were assigned to the portion of the total receptor concentration that was considered to be monomeric. Specifically, the change in the position of the peaks initially at 7.24 ppm (^1H NMR) and −177.03 ppm (^19F NMR) were followed. Integration of the two pyrrolic NH resonances (corresponding to calix[4]pyrroles that are “free” and bound to the next receptor molecule) made it possible to estimate the relative concentration of the monomeric fraction in the acetonitrile-d3 (0.5% v/v D2O) solutions being subject to analysis. This estimated monomeric receptor concentration was used to calculate the affinity constants. […] Estimated errors were <20%.
The presence of two different receptor forms in solution precluded the use of Job plots to analyze binding stoichiometries. […] This increased selectivity is summarized in terms of the ratio of the binding constants, R44/43. (Table 9). Separate from the issue of binding to the monomeric form, but complicating the analyses somewhat was the finding that the addition of phosphate and fluoride to wet acetonitrile solutions of 44 led to deaggregation.
^1H and ^19F NMR spectroscopic titrations. Receptor 46, as a 0.014 M acetonitrile-d3 (0.5% v/v D2O) solution, was titrated by addition of concentrated acetonitrile-d3 (0.5% v/v D2O) solutions of the anions in question (in the form of their tetrabutylammonium salts). In order to account for dilution effects, these anion solutions also contained receptor 46 at its initial concentration. The data were fit to a 1:1 binding profile according to the method of Wilcox (Wilcox, C. S. in Frontiers in Supramolecular Organic Chemistry and Photochemistry; Schneider, H.-J., Dürr, H., Eds.; VCH: Weinheim, 1991) using changes in both the NH and β-F pyrrolic resonances in the ^1H and ^19F NMR spectra, respectively.
The binding properties of 46 and 48 were studied.

[3] = as above; assay type: binding; conditions: for apparent binding constant, dihydrogen phosphate: acetonitrile, 0.008M of 44
[4] = Binding constant in wet acetonitrile
Description: Binding constants vary with the solvent used for the binding study. Note that the solvent used for the data of Table 2 of Example 10 was dichloromethane whereas the solvent used for the studies herein was acetonitrile. In addition, a binding constant of 12,300 M^−1 was determined for the binding of pyrophosphate to 44 in wet acetonitrile.

[5] = Stability under acidic conditions; assay type: physicochemical; conditions: down to pH 3 or 4
Description: An advantage of 44 is that in contrast to its simple all-hydrogen analogue 43 it is stable upon exposure to acidic aqueous environments (down to pH 3 or 4 for >24 hours). This makes this system particularly useful for anion recognition, binding, sensing, transport, and extraction applications described in Examples 4, 8, 10, 11, 12, and 15.
A further advantage of the calix[n]pyrroles is that they are stable at a wide range of temperatures, especially at neutral or basic conditions. Under acidic conditions and extreme high or low temperatures, the meso linkage may degrade. A particular attribute of the fluorinated calix[n]pyrroles 44, 46, and 48 is that they are very stable under acidic conditions.
This latter finding is consistent with compounds 46 and 48 being kinetically stable at ambient temperature but not at higher temperatures.

[6] = acetonitrile-d3 (0.5% v/v D2O) at 22° C., monomeric fraction, errors ≦20%
[7] = beta pyrrole F resonance, 0.008M of 44
[8] = pyrrole NH resonance, 0.008M of 44
[9] = ratio of the binding constants of 44 and 43
[10] = deuterated acetonitrile containing 0.5% v/v D2O

## CC1(C)c2[nH]c(c(F)c2F)C(C)(C)c2[nH]c(c(F)c2F)C(C)(C)c2[nH]c(c(F)c2F)C(C)(C)c2[nH]c1c(F)c2F [Compound 44, Meso-Octamethyl-β-octafluorocalix[4]pyrrole]
[1]; [6]
  Affinity constant, F^−: 17 100 mol^−1
[1]; [7]
  apparent binding constant, fluoride: 17,260±457 mol^−1
[1]; [8]
  apparent binding constant, fluoride: 17,100±3160 mol^−1
[1]; [9]
  R 44/43, F^−: 1.71
[2]; [6]
  Affinity constant, Cl^−: 10 700 mol^−1
  Affinity constant, DMSO-d6: 20 mol⁻¹
[2]; [7]
  apparent binding constant, chloride: 10,800±2004 mol^−1
  apparent binding constant, dimethyl sulfoxide (DMSO): 19.7 ± 0.5 mol⁻¹
[2]; [8]
  apparent binding constant, chloride: 11,020±2008 mol^−1
  apparent binding constant, dimethyl sulfoxide (DMSO): 18.7 ± 0.3 mol⁻¹
[2]; [10]
  Ka, DMSO: 20 ± 2 M⁻¹
[2]; [9]
  R 44/43, Cl^−: 2.14
  R 44/43, DMSO-d6: >4.0
[3]; [6]
  Affinity constant, H2PO4^−: 9 100 mol^−1
[3]; beta pyrrole F resonance
  apparent binding constant, dihydrogen phosphate: 9,700±1747 mol^−1
[3]; pyrrole NH resonance
  apparent binding constant, dihydrogen phosphate: 9,100±1756 mol^−1
[3]; [9]
  R 44/43, H2PO4^−: 7.0
[4]
  binding constant, pyrophosphate: 12,300 M^−1
[5]
  stable upon exposure to acidic aqueous environments: > 24 h

## CC1(C)c2[nH]c(c(F)c2F)C(C)(C)c2[nH]c(c(F)c2F)C(C)(C)c2[nH]c(c(F)c2F)C(C)(C)c2[nH]c(c(F)c2F)C(C)(C)c2[nH]c1c(F)c2F [Compound 46, β-Decafluoro-meso-decamethylcalix[5]pyrrole]
[1]; beta pyrrole F resonance, decreasing concentration of 46 starting at 0.010M
  apparent binding constant, fluoride: 62,296±3673 mol^−1
[1]; pyrrole NH resonance, 0.011M of 46
  apparent binding constant, fluoride: 59786 ± 7867 mol⁻¹
[2]; beta pyrrole F resonance, 0.0046M of 46
  apparent binding constant, dimethyl sulfoxide (DMSO): 28.3 ± 1.8 mol⁻¹
[2]; beta pyrrole F resonance, 0.011M of 46
  apparent binding constant, chloride: 43,804±8630 mol^−1
[2]; pyrrole NH resonance, 0.0046M of 46
  apparent binding constant, dimethyl sulfoxide (DMSO): 28.5 ± 2.7 mol⁻¹
[2]; pyrrole NH resonance, 0.012M of 46
  apparent binding constant, chloride: 39,102±8462 mol^−1
[2]; [10]
  Ka, DMSO: 29 ± 3 M⁻¹
  Ka, chloride anion: 41,000±6,000 M^−1
  affinity for chloride anion increased by a factor relative to 44: ca. 4
